# Among all 330,000 compounds or so, about 7,700 (2.3%) were called active. The inconclusive results got no clear call from the source; some entries with a clear call stand among them for comparison. The call rests on the fitted dose curve; in most records, active means well fitted inhibition curve with a large enough effect; inconclusive means small, poorly fitted or top-dose-only effect, or effect the other way; inactive means flat fitted curve, though single readings scatter. Where the call is inconclusive, the potency comes from a doubtful curve fit.
# Test: qHTS screen for small molecules that inhibit ELG1-dependent DNA repair in human embryonic kidney (HEK293T) cells expressing luciferase-tagged ELG1; further: nearly all actives have a fitted effect of over 55% in size
# Conditions: HEK293T ELG1-luciferase reporter, luminescence, 16 h, DNA damage induced by 5-fluorouridine; activity change, negative = inhibition: at 46.1 µM (top of the series)
# Procedure, shortened: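 Step one: seed 2,000 cells per well. Step two: pin-transfer compound or DMSO alongside 5-fluorouridine. Step three: incubate 16 hr, 37 °C, 5% CO2. Step four: add ONE-Glo, wait 30 min, read luminescence.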
# On the % scale 0 is the no-effect control and ±100 the full control effect; potency means the concentration at half of the fitted maximal effect.
SMILES,"activity change, negative = inhibition",Potency
Cc1cc(NC(=O)CCC(=O)N(c2ccc(F)cc2)C(C(=O)NC2CCCC2)c2cccnc2)no1 (stereo not drawn),inactive: -5.94%,
Cc1ccc(CC(=O)Nc2ncc([N+](=O)[O-])s2)cc1,,"inconclusive: 2.59 µM [activator, full curve]"
O=C(Nc1ccc2oc(-c3ccc4ccccc4c3)nc2c1)c1cccs1,,"inconclusive: 10.3 µM [activator, partial curve]"
O=C(N/N=C/c1ccc(-c2ccc(S(=O)(=O)Nc3ncccn3)cc2)o1)c1cc2ccccc2cc1O,inactive: -7.87%,
CC(=O)N1CCN(CCS(=O)(=O)c2cc(Cl)ccc2Cl)CC1,inactive: 8.71%,
CCS(=O)(=O)c1ncc(Cl)c(C(=O)Nc2ccc(S(=O)(=O)N(C)c3ccccc3)cc2)n1,,"inconclusive: 23.1 µM [inhibitor, single point]"
O=C(COc1ccc(Cl)cc1)N1CCCCC1,,"inconclusive: 23.1 µM [activator, partial curve, poor fit]"
CCOc1ccc(C2C=C(c3ccccc3)Nc3nnnn32)cc1 (stereo not drawn),,"inconclusive: 6.51 µM [activator, full curve]"
c1ccc(-n2ncc3c(N4CCC5(CC4)OCCO5)ncnc32)cc1,,"inconclusive: 3.66 µM [activator, full curve]"
CC(C)NCCCOc1ccc(Cl)cc1Br,,"inconclusive: 25.9 µM [activator, single point]"
CC1(C)Cc2c(sc3nc(-c4ccccc4Cl)n(N)c(=O)c23)CO1,,"inconclusive: 18.4 µM [inhibitor, single point]"
COc1cc(C(=O)NCCCN2CCCC2=O)cc(OC)c1OC,,"inconclusive: 16.4 µM [activator, partial curve, poor fit]"
O=c1c(Br)c(NCc2ccccc2)cnn1-c1ccc(F)cc1,,"inconclusive: 13 µM [activator, partial curve]"
O=C(Cn1c(=O)oc2ccccc21)Nc1n[nH]c(=S)s1,inactive: 0%,
COc1ccc(OCC2CCNCC2)cc1,,"inconclusive: 23.1 µM [activator, single point]"
O=C(N/N=C/c1cn(-c2ccccc2)nc1-c1ccc2c(c1)OCCO2)c1ccncc1,,"inconclusive: 9.2 µM [activator, partial curve]"
CCOC(=O)N1CCN(C(=O)c2oc3ccc(S(=O)(=O)N4CCOCC4)cc3c2C)CC1,,"inconclusive: 6.51 µM [inhibitor, single point]"
CCOc1ccc(S(=O)(=O)Nc2cccc(C(=O)N(C)Cc3cccc(OC)c3OC)c2)cc1,inactive: -3.59%,
CCOC(=O)C1=C(N)N2C(=O)C(C)SC2=C(C(=O)OCC)C1c1ccc(O)cc1 (stereo not drawn),,"inconclusive: 29.1 µM [inhibitor, single point]"
Cc1noc(C)c1S(=O)(=O)N(C)C[C@H]1Oc2ccc(NC(=O)C3CC3)cc2C(=O)N([C@H](C)CO)C[C@@H]1C,inactive: 0.566%,
Cc1cccc(OCC(=O)N=Nc2c(O)[nH]c3ccc([N+](=O)[O-])cc23)c1,,"inconclusive: 18.3 µM [inhibitor, partial curve, poor fit]"
CC1CCc2nn(CC(=O)NCCC3=CCCCC3)cc2C1 (stereo not drawn),,"inconclusive: 23.1 µM [activator, single point]"
Cc1ccc(/C=N/NC(=O)c2ccc(NC(=O)c3ccc(Cl)cc3)cc2)o1,,"inconclusive: 29.1 µM [activator, single point]"
COc1ccc(NC(=O)c2noc3c2CCCCC3)cc1,,"inconclusive: 2.59 µM [activator, full curve]"
CCn1nccc1C(=O)Nc1ccc(S(=O)(=O)NC23CC4CC(CC(C4)C2)C3)cc1,,"inconclusive: 29.1 µM [inhibitor, single point]"

# As entered above.
# Value for CCOC(=O)N1CCN(C(=O)c2oc3ccc(S(=O)(=O)N4CCOCC4)cc3c2C)CC1 under Potency: inconclusive: 6.51 µM [inhibitor, single point]
# Value for COc1ccc(OCC2CCNCC2)cc1 under Potency: inconclusive: 23.1 µM [activator, single point]

# At a glance, some entries already given.
SMILES,"activity change, negative = inhibition",Potency
CC1CCc2nn(CC(=O)NCCC3=CCCCC3)cc2C1 (stereo not drawn),,"inconclusive: 23.1 µM [activator, single point]"
Cc1ccc(/C=N/NC(=O)c2ccc(NC(=O)c3ccc(Cl)cc3)cc2)o1,,"inconclusive: 29.1 µM [activator, single point]"
COc1ccc(NC(=O)c2noc3c2CCCCC3)cc1,,"inconclusive: 2.59 µM [activator, full curve]"
CCn1nccc1C(=O)Nc1ccc(S(=O)(=O)NC23CC4CC(CC(C4)C2)C3)cc1,,"inconclusive: 29.1 µM [inhibitor, single point]"

# Going on with the list:

SMILES,"activity change, negative = inhibition",Potency
COC(=O)c1ccc(CNC(=O)Cn2cnc3c(SC)nc(N)nc32)cc1,,"inconclusive: 14.6 µM [inhibitor, partial curve]"
COc1ccc(OCC(=O)Nc2cccc3ncccc23)cc1,inactive: -11.3%,
Cc1ccc(CNc2ccc(N3CCOCC3)cc2)cc1,,"inconclusive: 3.66 µM [activator, partial curve, poor fit]"
CCN(CC)C(=O)c1ncn(Cc2ccccc2)c1C(=O)N(CC)CC,inactive: 11.7%,
Cc1ccc2nc(-c3ccc(NC(=O)CN4C(=O)NC(C)(c5ccc(OC(F)F)cc5)C4=O)cc3)sc2c1 (stereo not drawn),,"inconclusive: 5.17 µM [activator, partial curve]"
COC(=O)[C@H](CC(C)C)NCc1cccc(CN[C@@H](CC(C)C)C(=O)OC)c1,inactive: 11.7%,
CC1(C)OC(C(O)(c2ccccc2)c2ccccc2)[C@@H](C(O)(c2ccccc2)c2ccccc2)O1 (stereo partly drawn),,"inconclusive: 0.259 µM [activator, single point]"
CCCCc1c(CCC)c(=N)c2ccccc2n1C,,"inconclusive: 9.2 µM [inhibitor, partial curve]"
NC(=O)CSc1ncc(-c2ccccc2)[nH]1,,"inconclusive: 18.4 µM [activator, partial curve]"
COc1cc(/C=N/NC(=O)c2cccnc2)ccc1OC(=O)c1ccco1,inactive: 0.449%,
O=C1OCc2cc(NC(=O)C3CCCO3)ccc21 (stereo not drawn),,"inconclusive: 20.6 µM [activator, partial curve, poor fit]"
CCCCN1CC(=O)N2[C@H](c3ccc(OC)cc3)[C@@H]3C(=O)N(CC)C(=O)[C@@H]3[C@]2(Cc2ccccc2)C1=O,,"inconclusive: 0.13 µM [activator, single point]"
COc1ccc(OC)c(NC(=O)CCN2CCCCCC2)c1,inactive: -2.1%,
O=C(O)c1cccc(N2C(=O)c3cccc4cccc(c34)C2=O)c1,inactive: 1.15%,
COC(=O)c1sc(N)c(C(=O)OC)c1COC(=O)c1c(C)noc1C,,"inconclusive: 6.51 µM [inhibitor, partial curve]"
CC(C)CC(NC(=O)CNC(=O)C1O[C@@H]2OC(C)(C)O[C@@H]2[C@H]2OC(C)(C)O[C@@H]12)C(=O)O (stereo partly drawn),,"inconclusive: 4.61 µM [activator, partial curve, poor fit]"
CSc1ccc(C=O)cc1,,"inconclusive: 8.2 µM [activator, partial curve]"
Cc1cc(=O)[nH]c(N/N=C/C2=C(N3CCOCC3)C(=C\c3ccc(Cl)cc3)/CC2)n1,inactive: -8.56%,
CC1CCc2c(sc(NC(=O)CN3CCN(C(=O)c4ccco4)CC3)c2C#N)C1 (stereo not drawn),,active: 16.4 µM
CCCCNC(=S)N(C)/N=C/c1ccc(OCC(=O)Nc2ccc(OC)cc2)c(OC)c1,,active: 10.3 µM
COc1ccccc1CSc1ncc(-c2ccc([N+](=O)[O-])cc2)[nH]1,,"inconclusive: 32.6 µM [inhibitor, single point]"
COc1cccc(C(=O)N2N=C(c3ccccc3)CC2(O)C(F)(F)F)c1 (stereo not drawn),inactive: -5.53%,
O=C(NCc1ccco1)c1ccc(OCC2CCCO2)cc1 (stereo not drawn),,"inconclusive: 20 µM [activator, single point]"
CC1=Nc2cc(Cl)ccc2Oc2ccccc21,inactive: 12.1%,
COc1ccccc1NC(=O)C/C(C)=N/NC(=O)c1ccccn1,,"inconclusive: 29.1 µM [activator, partial curve, poor fit]"

SMILES,"activity change, negative = inhibition",Potency
O=C(O/N=C1\CCS(=O)(=O)c2sccc21)c1ccccc1,inactive: -1.14%,
C=CCNC(=O)c1ccc(-n2cccc2)cc1,,"inconclusive: 14.6 µM [activator, partial curve]"
CCOCCCNC(=O)c1ccc(Cn2c(=S)[nH]c3c([nH]c4ccc(OC)cc43)c2=O)cc1,inactive: -3.87%,
Cc1cccc(C)c1NC(=O)CSc1nnc(Cn2nnc(-c3ccccc3)n2)n1-c1ccccc1,,"inconclusive: 23.1 µM [inhibitor, single point]"
c1ccc(CN2CCN(c3nc4ccccc4s3)CC2)cc1,,"inconclusive: 2.31 µM [activator, full curve]"
COc1cccc(NC(=O)CSc2nnc3ccc(-c4ccccn4)nn23)c1,inactive: 4.94%,
O=C1NC2(CCC3(CC2)OCCO3)NN1c1ccccc1,inactive: -27.1%,
COc1ccc(CNC(=O)C/C(C)=N/NC(=O)COc2ccccc2)cc1,inactive: 0.678%,
CCC1CCCCN1CCCNC(=O)c1cn(C)c2ccc(S(=O)(=O)N(C)C3CCCCC3)cc2c1=O (stereo not drawn),,"inconclusive: 1.16 µM [activator, single point]"
O=C(CCC(=O)Nc1ccccc1Cl)NNS(=O)(=O)c1ccc(Cl)cc1,inactive: -2.41%,
COC(=O)c1ccc(CS(=O)(=O)c2ccc(C)cc2)cc1,inactive: -6.7%,
Cc1c(NC(=O)c2cccs2)cccc1NC(=O)c1cccs1,inactive: -14.9%,
Cc1ccc(CC(=O)Nc2ccc(C(=O)N3CCCCC3)cc2)cc1,inactive: 0.149%,
CCOC(=O)c1cc(-c2ccccc2)n(CC(=O)Nc2cccc(OC)c2)c1C,inactive: 5.58%,
CS(=O)(=O)c1ccc(NCCc2ccccn2)c([N+](=O)[O-])c1,inactive: 9.95%,
CC1(C)Cc2c(sc3nn[nH]c(=O)c23)CO1,inactive: 6.74%,
CCn1c(Cn2nnc(-c3ccccc3)n2)nnc1SCC(=O)Nc1cccc(C)c1C,,"inconclusive: 29.1 µM [inhibitor, single point]"
Cc1ccc(-c2nc3ccccn3c2NCc2ccc3c(c2)OCO3)cc1,,"inconclusive: 4.11 µM [activator, single point]"
Cc1oc(-c2ccccc2Cl)nc1CN1CCCCC1CO (stereo not drawn),inactive: 2.17%,
Cc1cccc(NC(=O)c2cccc(S(=O)(=O)N3CCc4ccccc4C3)c2)n1,,"inconclusive: 29.1 µM [inhibitor, single point]"
CCOC(=O)Cc1csc(NC(=O)c2csc(C)c2)n1,inactive: -3.1%,
O=C(COC(=O)c1ccccc1Cl)NC1CCCCCCC1,inactive: 13.9%,
Cc1ccccc1C(=O)NNC(=O)c1ccc(F)cc1,,"inconclusive: 23.1 µM [activator, partial curve, poor fit]"

# Reference: PubChem BioAssay AID504467 (National Center for Advancing Translational Sciences (NCATS), 2011)
